Results: article PMC8355244, “A fragment-based approach identifies an allosteric pocket that impacts malate dehydrogenase activity” (Communications Biology, 2021)
Where “and” joins values, the source holds several entries; their conditions need not be identical. Identical values can stand only once. The source gives many values for each of these; only a part stands here.

Amino acid sequences for entries named in this document (tags omitted).
UniProt Q6VVP7, entry or part of it: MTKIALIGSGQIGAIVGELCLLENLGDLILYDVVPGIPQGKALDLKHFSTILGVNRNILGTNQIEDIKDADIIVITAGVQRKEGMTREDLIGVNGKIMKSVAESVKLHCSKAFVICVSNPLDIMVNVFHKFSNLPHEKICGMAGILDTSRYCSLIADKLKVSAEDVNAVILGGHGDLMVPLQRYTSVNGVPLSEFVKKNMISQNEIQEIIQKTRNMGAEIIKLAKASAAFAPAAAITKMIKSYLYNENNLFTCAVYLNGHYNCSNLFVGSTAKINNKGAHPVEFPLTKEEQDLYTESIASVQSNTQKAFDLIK

Molecular target: T1, PfMDH (Plasmodium falciparum, UniProt Q6VVP7)
T1 construct: The full-length WT PfMDH gene was cloned into pETM-13; made in house; host or cells: E. coli Rosetta 2 (DE3) pLysS
Test: Thermal shift assay (TSA)
Assay type: binding
Details: for TSA melting curve raw signal: triplicate columns; for TSA melting curve raw fluorescence signal: three replicate columns
Experimental: The TSA experiment was conducted in a BioRad CSX 96 (Biorad). Each reaction consisted of 1 mM of compound (100 mM stock in 100% (v/v) DMSO) and 10 μM PfMDH in 100 mM Na–phosphate buffer pH 7.4, 400 mM NaCl, and 10× Sypro Orange (Invitrogen) for a total volume of 100 μl. Control experiments were performed with 1% (v/v) DMSO. Inflection points were determined using BioRad CFX96™ control software. Generally, a temperature increase of over 1 °C is interpreted as a result of the stabilization of the protein-ligand interaction. On the contrary, a negative shift is considered a destabilization caused by the fragment.

For `Nc1nc(-c2ccccc2)cs1` [4PA, 4-phenylthiazol-2-amine], the “TSA melting curve raw signal” value (Temperature 25.5) was 3084.629 and 3314.487 and 3407.398, the “TSA melting curve raw signal” value (Temperature 26) was 3067.696 and 3295.097 and 3394.92 and the “TSA melting curve raw signal” value (Temperature 26.5) was 3050.763 and 3275.707 and 3382.443. For the same compound, the “TSA melting curve raw signal” value (Temperature 27) was 3033.83 and 3256.317 and 3369.966, the “TSA melting curve raw signal” value (Temperature 27.5) was 3016.897 and 3236.927 and 3357.488 and the “TSA melting curve raw signal” value (Temperature 28) was 2999.964 and 3217.537 and 3345.011. For the same compound, the “TSA melting curve raw signal” value (Temperature 44.5) was 3904.714 and 4261.911, the “TSA melting curve raw signal” value (Temperature 45) was 3805.067 and 4016.787 and 4379.089 and the “TSA melting curve raw signal” value (Temperature 45.5) was 3910.01 and 4137.366 and 4503.47. For the same compound, the “TSA melting curve raw signal” value (Temperature 46) was 4020.919 and 4265.686 and 4634.244, the “TSA melting curve raw signal” value (Temperature 46.5) was 4137.39 and 4400.727 and 4770.478 and the “TSA melting curve raw signal” value (Temperature 47) was 4259.115 and 4542.14 and 4911.453. The “TSA melting curve raw signal” value (Temperature 47.5) was 4385.668 and 4689.12 and 5056.693, the “TSA melting curve raw signal” value (Temperature 48) was 4516.278 and 4841.649 and 5206.114 and the “TSA melting curve raw signal” value (Temperature 48.5) was 4651.117 and 4998.262 and 5359.59. The “TSA melting curve raw signal” value (Temperature 49) was 4790.038 and 5159.489 and 5517.682, the “TSA melting curve raw signal” value (Temperature 49.5) was 4932.562 and 5323.992 and 5679.587 and the “TSA melting curve raw signal” value (Temperature 50) was 5078.328 and 5491.844 and 5845.263. The “TSA melting curve raw signal” value (Temperature 50.5) was 5226.894 and 5661.711 and 6014.151, the “TSA melting curve raw signal” value (Temperature 51) was 5378.539 and 5836.955 and 6187.542 and the “TSA melting curve raw signal” value (Temperature 51.5) was 5534.292 and 6017.955 and 6365.814. The “TSA melting curve raw signal” value (Temperature 52) was 5694.818 and 6206.067 and 6550.32, the “TSA melting curve raw signal” value (Temperature 52.5) was 5861.52 and 6401.93 and 6741.574 and the “TSA melting curve raw signal” value (Temperature 53) was 6036.077 and 6606.661 and 6940.612. For the same compound, the “TSA melting curve raw signal” value (Temperature 53.5) was 6218.806 and 6818.026 and 7146.275, the “TSA melting curve raw signal” value (Temperature 54) was 6408.713 and 7034.448 and 7357.223 and the “TSA melting curve raw signal” value (Temperature 54.5) was 6604.948 and 7254.373 and 7571.417. The “TSA melting curve raw signal” value (Temperature 55) was 6804.741 and 7474.762 and 7785.819, the “TSA melting curve raw signal” value (Temperature 55.5) was 7005.366 and 7692.449 and 7997.483 and the “TSA melting curve raw signal” value (Temperature 56) was 7203.373 and 7904.585 and 8202.991. The “TSA melting curve raw signal” value (Temperature 56.5) was 7394.744 and 8107.02 and 8397.501, the “TSA melting curve raw signal” value (Temperature 57) was 7576.136 and 8296.36 and 8577.838 and the “TSA melting curve raw signal” value (Temperature 57.5) was 7744.574 and 8469.737 and 8741.555. The “TSA melting curve raw signal” value (Temperature 58) was 7895.882 and 8623.488 and 8884.747, the “TSA melting curve raw signal” value (Temperature 58.5) was 8026.752 and 8754.408 and 9004.782 and the “TSA melting curve raw signal” value (Temperature 59) was 8135.752 and 8861.676 and 9101.535. For the same compound, the “TSA melting curve raw signal” value (Temperature 59.5) was 8221.132 and 8944.219 and 9173.843, the “TSA melting curve raw signal” value (Temperature 60) was 8282.224 and 9001.516 and 9221.579 and the “TSA melting curve raw signal” value (Temperature 60.5) was 8318.835 and 9035.369 and 9246.466. The “TSA melting curve raw signal” value (Temperature 61) was 8332.719 and 9047.448 and 9250.68, the “TSA melting curve raw signal” value (Temperature 61.5) was 8325.877 and 9039.43 and 9237.655 and the “TSA melting curve raw signal” value (Temperature 62) was 8301.151 and 9013.786 and 9210.954. For the same compound, the “TSA melting curve raw signal” value (Temperature 62.5) was 8261.725 and 8973.934 and 9173.651, the “TSA melting curve raw signal” value (Temperature 63) was 8212.877 and 8922.391 and 9128.752 and the “TSA melting curve raw signal” value (Temperature 63.5) was 8157.979 and 8862.823 and 9078.613. For the same compound, the “TSA melting curve raw signal” value (Temperature 64) was 8100.217 and 8799.277 and 9024.44, the “TSA melting curve raw signal” value (Temperature 64.5) was 8041.145 and 8734.291 and 8967.605 and the “TSA melting curve raw signal” value (Temperature 65) was 7982.263 and 8669.34 and 8909.092. For the same compound, the “TSA melting curve raw fluorescence signal” value (Temperature 65.5) was 7923.258 and 8605.873 and 8849.16, the “TSA melting curve raw fluorescence signal” value (Temperature 66) was 7864.345 and 8544.07 and 8789.228 and the “TSA melting curve raw fluorescence signal” value (Temperature 66.5) was 7804.967 and 8483.017 and 8729.364. For the same compound, the “TSA melting curve raw fluorescence signal” value (Temperature 67) was 7745.828 and 8422.472 and 8668.939, the “TSA melting curve raw fluorescence signal” value (Temperature 67.5) was 7686.886 and 8362.835 and 8608.061 and the “TSA melting curve raw fluorescence signal” value (Temperature 68) was 7628.545 and 8303.559 and 8547.163. For the same compound, the “TSA melting curve raw fluorescence signal” value (Temperature 68.5) was 7571.029 and 8244.637 and 8485.56, the “TSA melting curve raw fluorescence signal” value (Temperature 69) was 7513.468 and 8186.526 and 8423.17 and the “TSA melting curve raw fluorescence signal” value (Temperature 69.5) was 7455.291 and 8129.127 and 8360.962. For the same compound, the “TSA melting curve raw fluorescence signal” value (Temperature 70) was 7396.359 and 8070.819 and 8298.955, the “TSA melting curve raw fluorescence signal” value (Temperature 70.5) was 7336.373 and 8011.926 and 8237.077 and the “TSA melting curve raw fluorescence signal” value (Temperature 71) was 7275.089 and 7952.437 and 8175.595. The “TSA melting curve raw fluorescence signal” value (Temperature 71.5) was 7214.65 and 7891.958 and 8114.859, the “TSA melting curve raw fluorescence signal” value (Temperature 72) was 7155.72 and 7830.719 and 8054.631 and the “TSA melting curve raw fluorescence signal” value (Temperature 72.5) was 7098.673 and 7770.868 and 7995.791. The “TSA melting curve raw fluorescence signal” value (Temperature 73) was 7043.868 and 7712.418 and 7938.252, the “TSA melting curve raw fluorescence signal” value (Temperature 90) was 5956.718 and 6085.443 and the “TSA melting curve raw fluorescence signal” value (Temperature 90.5) was 5375.784 and 5904.092 and 6029.299. The “TSA melting curve raw fluorescence signal” value (Temperature 91) was 5328.576 and 5852.6 and 5973.79, the “TSA melting curve raw fluorescence signal” value (Temperature 91.5) was 5281.219 and 5802.488 and 5919.792 and the “TSA melting curve raw fluorescence signal” value (Temperature 92) was 5234.284 and 5754.1 and 5866.949. The “TSA melting curve raw fluorescence signal” value (Temperature 92.5) was 5187.516 and 5706.098 and 5814.299, the “TSA melting curve raw fluorescence signal” value (Temperature 93) was 5140.842 and 5657.232 and 5761.506 and the “TSA melting curve raw fluorescence signal” value (Temperature 93.5) was 5094.281 and 5607.784 and 5708.003. The “TSA melting curve raw fluorescence signal” value (Temperature 94) was 5048.35 and 5556.207 and 5654.849, the “TSA melting curve raw fluorescence signal” value (Temperature 94.5) was 5002.206 and 5503.967 and 5600.988 and the “TSA melting curve raw fluorescence signal” value (Temperature 95) was 4957.208 and 5448.062 and 5549.701.
